The target of the assay is T1, KDM2A (mouse (endogenous in c-KIT+ spermatogonia of mouse testes)) (UniProt P59997).
T1 sequence: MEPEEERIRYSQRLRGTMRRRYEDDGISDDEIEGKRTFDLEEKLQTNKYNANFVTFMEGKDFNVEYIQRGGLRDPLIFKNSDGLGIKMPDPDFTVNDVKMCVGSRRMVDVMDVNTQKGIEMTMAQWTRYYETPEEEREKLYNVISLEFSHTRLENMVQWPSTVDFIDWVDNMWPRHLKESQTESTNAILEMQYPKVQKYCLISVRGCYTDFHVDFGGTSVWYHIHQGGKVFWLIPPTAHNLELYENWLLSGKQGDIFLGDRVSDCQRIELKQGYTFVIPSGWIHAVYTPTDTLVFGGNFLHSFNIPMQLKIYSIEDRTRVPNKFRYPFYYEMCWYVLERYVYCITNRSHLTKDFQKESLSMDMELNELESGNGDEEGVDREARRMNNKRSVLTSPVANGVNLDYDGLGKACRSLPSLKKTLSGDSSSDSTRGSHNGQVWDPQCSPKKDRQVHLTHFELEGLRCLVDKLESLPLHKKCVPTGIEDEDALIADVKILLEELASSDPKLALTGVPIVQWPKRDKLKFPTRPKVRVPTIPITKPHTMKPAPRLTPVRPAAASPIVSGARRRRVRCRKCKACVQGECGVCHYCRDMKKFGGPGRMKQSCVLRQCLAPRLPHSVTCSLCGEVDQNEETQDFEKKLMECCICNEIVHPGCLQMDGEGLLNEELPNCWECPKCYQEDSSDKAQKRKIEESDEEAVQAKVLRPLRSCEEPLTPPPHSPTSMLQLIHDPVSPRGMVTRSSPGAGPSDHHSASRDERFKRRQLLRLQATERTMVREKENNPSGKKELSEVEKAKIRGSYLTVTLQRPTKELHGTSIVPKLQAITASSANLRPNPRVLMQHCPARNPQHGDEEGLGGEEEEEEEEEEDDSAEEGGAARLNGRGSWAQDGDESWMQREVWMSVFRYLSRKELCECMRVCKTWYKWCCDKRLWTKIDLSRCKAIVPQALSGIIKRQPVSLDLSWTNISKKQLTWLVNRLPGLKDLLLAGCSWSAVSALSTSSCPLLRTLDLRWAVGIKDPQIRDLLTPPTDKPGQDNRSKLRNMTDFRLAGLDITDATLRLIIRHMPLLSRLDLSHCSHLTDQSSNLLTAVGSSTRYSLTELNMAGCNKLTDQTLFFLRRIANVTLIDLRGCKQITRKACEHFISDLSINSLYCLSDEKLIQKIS
Description: co-IP; lysate of purified c-KIT+ spermatogonia, relevant antibodies and protein A/G magnetic beads overnight at 4 °C, with or without Super Nuclease, six washes, western blot; IgG as negative control.

Results are given in words; binding and its absence hold for the method and conditions named. Binding seen in cells or lysates may run through a third protein. Binding can be weak; no strength is given.

Consider HCFC1, for which the binding result is recorded as “binds”.

For the origin of these results see PMC11448500.
